Earlier results on 1 compound are cited in patent US20200352905A1, “6-(2,4-DICHLOROPHENYL)-5-[4-[(3S)-1-(3-FLUOROPROPYL)PYRROLIDIN-3-YL]OXYPHENYL]-8,9-DIHYDRO-7H-BENZO[7]ANNULENE-2-CARBOXYLIC ACID FOR USE IN METASTATIC OR ADVANCED BREAST CANCER PATIENTS” (SANOFI, priority 2019, published 2020).

The series concerns CYP3A. The following applies: moderate CYP3A inhibitors; victim sildenafil; cited from earlier work.

Each structure is given as a SMILES string.

Consider `O=C(O)c1cn(C2CC2)c2cc(N3CCNCC3)c(F)cc2c1=O` [ciprofloxacin], for which the “AUC Ratio” value is 2.12.
